Assay results taken from patent US5547938A, “Therapeutic agent for digestive tract diseases using glicentin” (Nisshin Flour Milling Co., Ltd., priority 1993, dated 1996).

System: intestinal mucosae
Experiment: Example 1: nutritional (trophic) effect of glicentin on the intestinal mucosae of rats fed an elemental nutrition
Format: in vivo, rat
Conditions: 10 μg glicentin s.c. every 12 hours for 7 days
Method: An experiment was performed in male SD rats weighing 140-160 g which had been fed on standard food under light-dark condition of a cycle of 12 hours. The food which was replaced by an elemental nutrition (Elental®, Morishita-Roussel Japan) was taken ad lib., and remained unchanged until the experiment was finished. After feeding on the component nutrition for 3 days, administration of glicentin prepared as described below was started.
Gelatin was dissolved in warm water to a weight ratio of 16%, and the solution autoclaved and cooled to room temperature. To 40 ml of the gelatin solution was added a solution of 1 mg of glicentin in 10 ml of distilled water with stirring at room temperature. The mixture was divided into test tubes, freeze dried and stored for use.
The gelatin solution was subcutaneously given at a dose of 10 μg per glicentin every 12 hours for 7 days to examine a nutritional effect of glicentin on the intestinal mucosae. A similar gelatin solution containing no glicentin was given for the same period of time as a control for comparison. […]
The tissues fixed in the formalin solution were embedded in paraffin to form a preparation which was stained with hematoxylin-eosin and measured for height of the villi using an optical microscope.

B1: Glicentin: Enteroglucagon peptide comprising 69 amino acid residues (SEQ ID NO:1), prepared by genetic engineering procedure (protein)
chain: RSLQDTEEKSRSFSASQADPLSDPDQMNEDKRHSQGTFTSDYSKYLDSRRAQDFVQWLMNTKRNRNNIA
Bodyweight after administration: 180.8 ± 5.3
